Our source for the binding values is PMC12216399.

Chains of the proteins cited; added tags and fusions are not shown.
UniProt P46940: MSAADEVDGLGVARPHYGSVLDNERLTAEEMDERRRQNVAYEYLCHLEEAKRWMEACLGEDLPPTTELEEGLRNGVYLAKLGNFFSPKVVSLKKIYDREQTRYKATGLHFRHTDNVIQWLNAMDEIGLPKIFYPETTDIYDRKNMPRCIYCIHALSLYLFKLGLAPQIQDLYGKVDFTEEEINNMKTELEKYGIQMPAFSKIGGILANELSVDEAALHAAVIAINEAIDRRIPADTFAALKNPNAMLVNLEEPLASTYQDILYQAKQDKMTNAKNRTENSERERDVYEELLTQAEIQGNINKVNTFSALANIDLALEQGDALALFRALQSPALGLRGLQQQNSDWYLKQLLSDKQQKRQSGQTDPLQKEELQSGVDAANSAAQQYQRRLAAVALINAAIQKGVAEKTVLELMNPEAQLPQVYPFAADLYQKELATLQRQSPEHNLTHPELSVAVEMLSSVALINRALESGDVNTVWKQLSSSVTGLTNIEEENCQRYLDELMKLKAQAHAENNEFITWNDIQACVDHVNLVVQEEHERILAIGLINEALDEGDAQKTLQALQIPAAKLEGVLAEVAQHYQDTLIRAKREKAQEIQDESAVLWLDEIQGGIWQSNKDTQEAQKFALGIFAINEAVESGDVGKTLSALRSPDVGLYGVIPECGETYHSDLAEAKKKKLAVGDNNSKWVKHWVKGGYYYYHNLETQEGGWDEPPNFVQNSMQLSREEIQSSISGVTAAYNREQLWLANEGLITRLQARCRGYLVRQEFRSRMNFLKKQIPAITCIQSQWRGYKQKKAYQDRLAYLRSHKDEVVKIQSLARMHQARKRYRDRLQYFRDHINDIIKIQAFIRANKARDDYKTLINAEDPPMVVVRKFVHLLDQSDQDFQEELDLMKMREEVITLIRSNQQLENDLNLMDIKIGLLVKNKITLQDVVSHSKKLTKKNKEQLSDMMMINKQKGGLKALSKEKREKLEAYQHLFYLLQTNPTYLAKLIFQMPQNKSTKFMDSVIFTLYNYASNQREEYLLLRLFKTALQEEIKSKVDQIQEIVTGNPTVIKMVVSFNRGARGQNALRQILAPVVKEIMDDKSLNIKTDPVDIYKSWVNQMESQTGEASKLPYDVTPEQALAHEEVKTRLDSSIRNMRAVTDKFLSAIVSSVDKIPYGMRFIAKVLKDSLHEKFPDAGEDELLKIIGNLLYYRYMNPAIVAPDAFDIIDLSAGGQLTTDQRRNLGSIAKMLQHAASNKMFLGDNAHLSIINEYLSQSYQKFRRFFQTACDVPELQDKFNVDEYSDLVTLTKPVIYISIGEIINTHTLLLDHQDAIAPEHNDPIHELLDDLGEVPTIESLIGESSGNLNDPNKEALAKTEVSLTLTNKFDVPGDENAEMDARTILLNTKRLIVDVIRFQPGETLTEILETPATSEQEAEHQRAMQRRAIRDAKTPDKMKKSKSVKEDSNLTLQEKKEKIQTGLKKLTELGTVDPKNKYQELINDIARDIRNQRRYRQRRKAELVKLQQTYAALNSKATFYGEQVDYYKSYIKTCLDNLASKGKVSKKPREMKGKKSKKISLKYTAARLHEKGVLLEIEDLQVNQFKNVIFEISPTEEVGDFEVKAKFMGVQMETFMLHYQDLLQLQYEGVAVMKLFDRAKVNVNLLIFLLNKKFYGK

Read-outs that look alike come from different tables or passages of the source. These are yes or no findings as the source states them, for the method shown. Binding seen in cells or lysates may run through a third protein. Some binding calls cover weakened binding; strength is not graded here.

The target in assay [1] is T1, ATG9A (Autophagy Related 9 A) (human (endogenous in human ovarian cancer cells)) (UniProt Q7Z3C6).
T1 sequence: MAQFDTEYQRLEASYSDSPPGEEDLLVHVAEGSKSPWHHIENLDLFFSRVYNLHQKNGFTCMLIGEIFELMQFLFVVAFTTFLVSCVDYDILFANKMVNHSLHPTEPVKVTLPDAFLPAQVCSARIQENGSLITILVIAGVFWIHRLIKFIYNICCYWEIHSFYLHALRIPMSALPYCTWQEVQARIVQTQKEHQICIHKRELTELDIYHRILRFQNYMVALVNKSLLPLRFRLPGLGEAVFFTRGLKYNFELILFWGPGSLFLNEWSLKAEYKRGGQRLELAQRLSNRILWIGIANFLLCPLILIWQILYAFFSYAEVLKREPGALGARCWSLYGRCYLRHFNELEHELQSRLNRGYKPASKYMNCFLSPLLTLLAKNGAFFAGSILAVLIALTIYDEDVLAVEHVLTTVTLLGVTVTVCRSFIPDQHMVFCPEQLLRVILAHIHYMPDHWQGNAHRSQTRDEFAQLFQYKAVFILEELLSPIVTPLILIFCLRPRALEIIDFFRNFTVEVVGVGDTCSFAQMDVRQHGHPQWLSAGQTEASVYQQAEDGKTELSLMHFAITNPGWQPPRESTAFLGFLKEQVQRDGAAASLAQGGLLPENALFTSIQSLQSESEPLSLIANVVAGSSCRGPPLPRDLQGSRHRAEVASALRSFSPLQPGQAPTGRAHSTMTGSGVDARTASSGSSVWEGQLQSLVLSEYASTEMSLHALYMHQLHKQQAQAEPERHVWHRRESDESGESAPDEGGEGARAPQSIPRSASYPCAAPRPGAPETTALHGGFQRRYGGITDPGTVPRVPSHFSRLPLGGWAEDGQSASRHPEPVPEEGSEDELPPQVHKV
Nature of the assay: co-IP; ATG9A antibody (Cell Signaling Technology, 13509S) or rabbit IgG crosslinked with DSS to resin (Pierce Crosslink Immunoprecipitation Kit); 750 µg protein extract, 4 °C overnight; Western blot of eluate; cancer cells alone or co-cultured with macrophages. On the technique in general: A western blot detects proteins with antibodies after separation by electrophoresis.

Assay [2] has as its target T1, ATG9A (Autophagy Related 9 A) (human (endogenous in human ovarian cancer cells)). The description is as above. This is another data set of the same source.

IQGAP1 (from UniProt P46940 1-1657): in assay [1], the binding entry is “binds”.

B1: caveolae associated protein 2 (CAVIN2) (protein, UniProt O95810 1-425)
chain: MGEDAAQAEKFQHPGSDMRQEKPSSPSPMPSSTPSPSLNLGNTEEAIRDNSQVNAVTVLTLLDKLVNMLDAVQENQHKMEQRQISLEGSVKGIQNDLTKLSKYQASTSNTVSKLLEKSRKVSAHTRAVKERMDRQCAQVKRLENNHAQLLRRNHFKVLIFQEENEIPASVFVKQPVSGAVEGKEELPDENKSLEETLHTVDLSSDDDLPHDEEALEDSAEEKVEESRAEKIKRSSLKKVDSLKKAFSRQNIEKKMNKLGTKIVSVERREKIKKSLTSNHQKISSGKSSPFKVSPLTFGRKKVREGESHAENETKSEDLPSSEQMPNDQEEESFAEGHSEASLASALVEGEIAEEAAEKATSRGSNSGMDSNIDLTIVEDEEEESVALEQAQKVRYEGSYALTSEEAERSDGDPVQPAVLQVHQTS
As for B1, in assay [2], the binding result is “binds”.
